Source: paper PMC9672452
Results are given in words; binding and its absence hold for the method and conditions named. Some entries that bind do so weakly or less than the wild type.

The chains behind the UniProt entries cited, without tags or fusion partners. Where a name states a change or a piece, a line headed by the entry shows the natural chain unless it says otherwise. A line that says so, or that is headed by a name, gives the form on record, which may keep a tag or linker. Residues count along the entry.
full-length human NOTCH1 D464N (EGF12) (P46531, form named): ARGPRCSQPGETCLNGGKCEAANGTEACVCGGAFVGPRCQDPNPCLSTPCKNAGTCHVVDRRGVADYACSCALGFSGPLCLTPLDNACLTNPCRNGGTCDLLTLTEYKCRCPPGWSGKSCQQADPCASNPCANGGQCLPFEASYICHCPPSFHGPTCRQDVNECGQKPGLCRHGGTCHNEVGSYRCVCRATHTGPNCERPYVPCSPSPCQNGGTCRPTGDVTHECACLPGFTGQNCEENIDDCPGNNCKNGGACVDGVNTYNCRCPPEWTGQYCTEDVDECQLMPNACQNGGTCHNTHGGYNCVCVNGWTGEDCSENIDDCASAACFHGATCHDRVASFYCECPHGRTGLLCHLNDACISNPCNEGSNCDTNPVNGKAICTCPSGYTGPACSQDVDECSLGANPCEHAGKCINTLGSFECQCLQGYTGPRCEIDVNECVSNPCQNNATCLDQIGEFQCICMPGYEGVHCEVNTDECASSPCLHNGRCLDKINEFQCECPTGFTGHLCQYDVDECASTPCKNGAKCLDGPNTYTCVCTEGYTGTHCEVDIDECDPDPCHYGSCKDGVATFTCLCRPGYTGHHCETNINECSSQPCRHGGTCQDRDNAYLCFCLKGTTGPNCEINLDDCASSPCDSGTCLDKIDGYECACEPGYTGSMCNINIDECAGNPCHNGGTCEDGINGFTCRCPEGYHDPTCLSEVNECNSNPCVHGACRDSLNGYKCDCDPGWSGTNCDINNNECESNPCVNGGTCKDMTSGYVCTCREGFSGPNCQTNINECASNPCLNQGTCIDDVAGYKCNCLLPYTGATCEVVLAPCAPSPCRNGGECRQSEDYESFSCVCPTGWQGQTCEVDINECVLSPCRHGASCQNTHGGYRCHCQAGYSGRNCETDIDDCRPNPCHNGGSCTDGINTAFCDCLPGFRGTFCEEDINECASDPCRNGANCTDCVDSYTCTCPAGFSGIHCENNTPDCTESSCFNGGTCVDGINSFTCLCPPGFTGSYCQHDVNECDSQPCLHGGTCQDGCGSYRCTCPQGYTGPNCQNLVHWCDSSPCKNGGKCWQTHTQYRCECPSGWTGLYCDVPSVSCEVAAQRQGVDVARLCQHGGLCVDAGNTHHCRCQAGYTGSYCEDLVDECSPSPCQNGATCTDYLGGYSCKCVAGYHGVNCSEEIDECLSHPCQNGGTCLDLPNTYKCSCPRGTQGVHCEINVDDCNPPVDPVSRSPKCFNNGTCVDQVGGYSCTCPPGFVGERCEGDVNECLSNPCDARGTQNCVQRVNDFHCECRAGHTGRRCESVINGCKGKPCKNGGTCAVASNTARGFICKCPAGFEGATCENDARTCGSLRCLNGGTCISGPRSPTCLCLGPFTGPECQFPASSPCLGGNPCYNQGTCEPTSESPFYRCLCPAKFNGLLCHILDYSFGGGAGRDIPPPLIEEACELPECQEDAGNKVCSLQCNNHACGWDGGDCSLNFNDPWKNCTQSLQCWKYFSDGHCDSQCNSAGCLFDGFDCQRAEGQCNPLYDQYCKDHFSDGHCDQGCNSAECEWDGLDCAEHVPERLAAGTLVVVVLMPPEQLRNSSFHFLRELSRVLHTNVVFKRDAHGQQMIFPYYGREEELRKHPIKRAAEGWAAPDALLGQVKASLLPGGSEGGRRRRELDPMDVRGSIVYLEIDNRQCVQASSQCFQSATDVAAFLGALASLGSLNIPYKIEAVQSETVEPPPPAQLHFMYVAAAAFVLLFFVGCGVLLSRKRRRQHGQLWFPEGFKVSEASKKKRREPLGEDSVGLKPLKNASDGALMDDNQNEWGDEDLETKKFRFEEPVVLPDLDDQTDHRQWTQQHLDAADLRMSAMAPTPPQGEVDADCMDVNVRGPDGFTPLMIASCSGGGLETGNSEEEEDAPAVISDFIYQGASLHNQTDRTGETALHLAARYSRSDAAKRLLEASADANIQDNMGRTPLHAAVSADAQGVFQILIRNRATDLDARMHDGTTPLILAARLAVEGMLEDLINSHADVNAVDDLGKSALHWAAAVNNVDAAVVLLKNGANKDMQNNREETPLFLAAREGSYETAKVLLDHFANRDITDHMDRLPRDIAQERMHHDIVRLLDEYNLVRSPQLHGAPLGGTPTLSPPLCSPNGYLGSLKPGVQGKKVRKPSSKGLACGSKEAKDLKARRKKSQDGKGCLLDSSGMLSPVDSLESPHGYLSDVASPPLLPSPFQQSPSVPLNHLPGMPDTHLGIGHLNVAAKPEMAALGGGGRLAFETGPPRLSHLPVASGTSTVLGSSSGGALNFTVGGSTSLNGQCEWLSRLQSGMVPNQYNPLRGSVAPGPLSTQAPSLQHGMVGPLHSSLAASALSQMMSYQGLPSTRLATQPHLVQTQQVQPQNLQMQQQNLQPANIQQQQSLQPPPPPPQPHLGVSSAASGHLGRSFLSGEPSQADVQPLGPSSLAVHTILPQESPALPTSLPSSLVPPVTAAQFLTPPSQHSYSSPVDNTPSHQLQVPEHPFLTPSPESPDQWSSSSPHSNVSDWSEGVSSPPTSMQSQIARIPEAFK
full-length human NOTCH1 G230R (EGF6) (P46531, form named): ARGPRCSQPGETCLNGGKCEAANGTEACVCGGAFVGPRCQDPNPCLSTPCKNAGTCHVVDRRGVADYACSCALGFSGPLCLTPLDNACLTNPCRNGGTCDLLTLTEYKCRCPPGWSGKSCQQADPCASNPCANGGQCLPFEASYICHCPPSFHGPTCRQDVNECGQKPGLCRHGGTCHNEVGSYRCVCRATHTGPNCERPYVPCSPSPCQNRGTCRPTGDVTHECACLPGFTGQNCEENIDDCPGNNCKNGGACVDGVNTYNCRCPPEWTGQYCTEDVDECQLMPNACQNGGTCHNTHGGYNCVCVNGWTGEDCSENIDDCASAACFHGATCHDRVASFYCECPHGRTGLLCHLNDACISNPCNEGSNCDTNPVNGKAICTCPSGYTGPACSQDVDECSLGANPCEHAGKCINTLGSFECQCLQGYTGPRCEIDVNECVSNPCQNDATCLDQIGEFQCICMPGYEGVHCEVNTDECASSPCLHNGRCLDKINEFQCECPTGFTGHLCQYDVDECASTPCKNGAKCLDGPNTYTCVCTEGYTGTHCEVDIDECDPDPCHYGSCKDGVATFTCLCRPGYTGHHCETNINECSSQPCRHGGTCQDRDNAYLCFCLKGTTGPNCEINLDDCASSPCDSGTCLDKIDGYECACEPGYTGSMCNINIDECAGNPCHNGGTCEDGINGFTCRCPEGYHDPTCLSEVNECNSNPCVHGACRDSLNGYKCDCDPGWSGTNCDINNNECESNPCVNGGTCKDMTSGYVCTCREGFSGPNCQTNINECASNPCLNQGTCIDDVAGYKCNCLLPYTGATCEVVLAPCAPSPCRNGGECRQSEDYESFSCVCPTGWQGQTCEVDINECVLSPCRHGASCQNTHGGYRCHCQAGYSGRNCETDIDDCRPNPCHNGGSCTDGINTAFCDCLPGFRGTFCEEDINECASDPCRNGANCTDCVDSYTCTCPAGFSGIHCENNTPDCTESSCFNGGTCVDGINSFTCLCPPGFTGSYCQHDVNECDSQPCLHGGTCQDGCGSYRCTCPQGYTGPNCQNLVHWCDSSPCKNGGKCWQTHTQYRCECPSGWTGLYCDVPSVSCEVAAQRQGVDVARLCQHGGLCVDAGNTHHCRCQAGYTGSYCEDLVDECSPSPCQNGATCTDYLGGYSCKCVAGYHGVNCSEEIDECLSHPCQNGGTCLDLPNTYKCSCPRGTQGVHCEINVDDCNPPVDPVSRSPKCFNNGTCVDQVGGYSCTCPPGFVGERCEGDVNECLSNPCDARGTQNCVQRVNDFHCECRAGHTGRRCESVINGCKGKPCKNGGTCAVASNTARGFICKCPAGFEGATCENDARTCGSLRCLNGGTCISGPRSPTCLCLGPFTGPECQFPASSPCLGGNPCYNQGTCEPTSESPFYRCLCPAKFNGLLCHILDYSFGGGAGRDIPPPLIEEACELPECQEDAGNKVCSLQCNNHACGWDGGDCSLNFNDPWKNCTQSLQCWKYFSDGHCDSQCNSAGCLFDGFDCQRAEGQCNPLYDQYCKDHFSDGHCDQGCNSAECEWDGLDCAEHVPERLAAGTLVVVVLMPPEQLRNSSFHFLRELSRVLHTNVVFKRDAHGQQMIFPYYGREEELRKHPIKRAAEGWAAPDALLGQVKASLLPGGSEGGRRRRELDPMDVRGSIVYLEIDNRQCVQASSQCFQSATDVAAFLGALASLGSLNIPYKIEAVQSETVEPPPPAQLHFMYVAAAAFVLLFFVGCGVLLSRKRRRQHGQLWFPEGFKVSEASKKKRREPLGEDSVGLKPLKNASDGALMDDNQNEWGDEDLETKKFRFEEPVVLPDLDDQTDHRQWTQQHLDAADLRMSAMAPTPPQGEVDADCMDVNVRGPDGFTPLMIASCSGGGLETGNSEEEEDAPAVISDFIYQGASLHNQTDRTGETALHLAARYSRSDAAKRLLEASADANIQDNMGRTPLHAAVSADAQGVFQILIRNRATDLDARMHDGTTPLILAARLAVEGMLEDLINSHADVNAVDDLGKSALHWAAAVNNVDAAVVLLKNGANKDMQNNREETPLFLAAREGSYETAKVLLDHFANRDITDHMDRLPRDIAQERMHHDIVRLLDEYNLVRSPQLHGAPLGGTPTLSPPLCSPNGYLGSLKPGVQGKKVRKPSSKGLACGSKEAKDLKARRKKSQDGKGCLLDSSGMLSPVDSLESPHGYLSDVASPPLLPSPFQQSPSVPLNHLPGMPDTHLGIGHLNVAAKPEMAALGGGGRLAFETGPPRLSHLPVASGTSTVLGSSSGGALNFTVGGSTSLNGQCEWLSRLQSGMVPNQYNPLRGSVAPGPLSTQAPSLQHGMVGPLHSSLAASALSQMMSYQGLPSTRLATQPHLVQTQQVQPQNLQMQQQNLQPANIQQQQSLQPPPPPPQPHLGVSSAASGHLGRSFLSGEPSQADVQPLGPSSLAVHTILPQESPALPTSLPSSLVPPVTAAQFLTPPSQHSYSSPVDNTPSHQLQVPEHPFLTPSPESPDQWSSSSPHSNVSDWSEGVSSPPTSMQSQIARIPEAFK
UniProt P78504, residues 34-1067: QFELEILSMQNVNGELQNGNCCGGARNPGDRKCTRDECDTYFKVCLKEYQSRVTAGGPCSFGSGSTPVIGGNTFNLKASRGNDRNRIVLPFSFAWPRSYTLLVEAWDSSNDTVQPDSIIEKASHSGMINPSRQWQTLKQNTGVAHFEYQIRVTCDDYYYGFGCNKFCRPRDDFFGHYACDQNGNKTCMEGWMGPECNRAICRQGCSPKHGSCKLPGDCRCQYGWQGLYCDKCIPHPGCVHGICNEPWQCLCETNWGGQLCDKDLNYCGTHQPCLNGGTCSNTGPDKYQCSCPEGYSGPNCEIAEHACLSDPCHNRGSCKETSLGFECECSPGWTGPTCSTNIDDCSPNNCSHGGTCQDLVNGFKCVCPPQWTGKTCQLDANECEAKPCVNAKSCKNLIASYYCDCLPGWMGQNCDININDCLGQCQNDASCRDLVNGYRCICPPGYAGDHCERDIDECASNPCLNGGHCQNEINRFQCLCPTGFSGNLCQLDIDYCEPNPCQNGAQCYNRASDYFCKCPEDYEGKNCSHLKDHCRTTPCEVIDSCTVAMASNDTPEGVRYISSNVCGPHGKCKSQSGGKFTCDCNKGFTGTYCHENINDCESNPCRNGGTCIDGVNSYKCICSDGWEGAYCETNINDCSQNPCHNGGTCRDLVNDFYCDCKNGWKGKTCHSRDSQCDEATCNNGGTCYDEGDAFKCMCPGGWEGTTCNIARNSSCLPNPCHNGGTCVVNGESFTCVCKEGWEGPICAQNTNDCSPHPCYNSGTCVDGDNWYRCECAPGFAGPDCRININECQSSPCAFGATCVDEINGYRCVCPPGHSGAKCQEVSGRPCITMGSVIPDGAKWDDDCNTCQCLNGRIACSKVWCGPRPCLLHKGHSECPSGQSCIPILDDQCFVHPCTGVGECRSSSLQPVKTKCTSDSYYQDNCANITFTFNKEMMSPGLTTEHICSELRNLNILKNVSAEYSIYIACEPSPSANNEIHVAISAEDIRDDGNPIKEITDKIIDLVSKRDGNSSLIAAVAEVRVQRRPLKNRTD

How the values were obtained:
Assay in all cases: flow cytometry on cells; CHO cells transfected with N1 (WT or mutant), EV or LFNG, and RFP; 100 nM ligand-Fc with PE anti-Fc antibody in binding buffer (Hank's balanced salt solution, 1% bovine calf serum, 0.05% azide, 1 mM CaCl2) on ice for 1 h; PE mean fluorescent intensity of RFP-gated cells; only the binder purified
[1] = target: full-length human NOTCH1 D464N (EGF12) (human) (UniProt P46531)
[2] = target: full-length human NOTCH1 G230R (EGF6) (human) (UniProt P46531)
[3] = target: full-length human NOTCH1 G309R (EGF8) (human) (UniProt P46531)
[4] = target: full-length human NOTCH1 G310R (EGF8) (human) (UniProt P46531)
[5] = target: full-length human NOTCH1 G347S (EGF9) (human) (UniProt P46531)
[6] = target: full-length human NOTCH1 T311P (EGF8) (human) (UniProt P46531)
[7] = target: full-length human NOTCH1 T349P (EGF9) (human) (UniProt P46531)

| binding [1] | binding [2] | binding [3] | binding [4] | binding [5] | binding [6] | binding [7] | Substance |
| --- | --- | --- | --- | --- | --- | --- | --- |
| binds | binds | binds | binds | binds | binds | binds | JAG1-Fc (from UniProt P78504 34-1067) (Fc fusion) |
| binds | binds | binds | binds | binds | binds | binds | DLL1-Fc (from UniProt O00548 18-545) (Fc fusion) |
